Test results as given in article PMC10709007, “GPR162 is a beta cell CART receptor” (iScience, 2023).
No constants are given. Whether binding was seen depends on the method and setting. Binding can be weak; no strength is given. For some of these results: In cells and extracts the contact can be indirect. Each block holds one molecule with its values, some of them ahead of it.

Key:
[1] = target: T1, rat CARTp55-102 (rat) (UniProt P49192); assay: co-IP; INS-1 832/13 cell lysates incubated with 10^-7 M CARTp55-102 for 30 min at 4°C, cross-linked with 1 mM BS3 for 30 min at room temperature, precipitated with biotin-labelled CART antibody on streptavidin Dynabeads; blot for GPR162; controls without peptide and without antibody; only the target purified
T1 sequence (peptide): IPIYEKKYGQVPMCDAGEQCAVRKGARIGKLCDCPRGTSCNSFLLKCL

[2] = target: GPR162 (rat (endogenous in INS-1 832/13)); assay: radioligand binding; INS-1 cells in 24-well plates, control or Gpr162 siRNA; 10–15 'p.m.' (so in the source) 125I-CARTp55-102, 3 h at 4°C, 50 mM HEPES pH 7.4, 1 mM CaCl2, 5 mM MgCl2, 0.5% BSA; non-specific binding with 0.1 μM unlabeled CARTp55-102; binding 25% lower after Gpr162 KD; only the binder purified
[3] = target: GPR162 (rat (endogenous in INS-1 832/13)); assay: proximity ligation; INS-1 832/13 cells incubated with 10^-7 M rat CARTp55-102 for 5 min at 37°C, fixed, permeabilised; DuoLink Goat/Rabbit with anti-CART and an anti-receptor antibody; control or Gpr162 siRNA (90% lower CART-GPR162 signal after KD); only the binder purified
[4] = target: GPR162 (rat (endogenous in INS-1 832/13)); assay: proximity ligation; INS-1 832/13 cells, fixed and permeabilised; DuoLink Goat/Rabbit with rabbit anti-GNA13 and goat anti-GPR162

- binding [1]: binds
Molecule: GPR162 (rat (endogenous in INS-1 832/13)) (receptor)

- binding [2]: binds
Molecule: IPIYEKKYGQVPMCDAGEQCAVRKGARIGKLCDCPRGTSCNSFLLKCL (peptide, UniProt P49192 82-129, 125I in the meta-position of tyrosine side chains) [^125I-CARTp55-102]

- binding [3]: binds
Molecule: IPIYEKKYGQVPMCDAGEQCAVRKGARIGKLCDCPRGTSCNSFLLKCL (peptide, UniProt P49192 82-129) [rat CARTp55-102]

- binding [4]: binds
B1: G protein alpha 13 (protein, UniProt Q6Q7Y5 1-377)
chain: MADFLPSRSVLSVCFPGCVLTNGEAEQQRKSKEIDKCLSREKTYVKRLVKILLLGAGESGKSTFLKQMRIIHGQDFDQRAREEFRPTIYSNVIKGMRVLVDAREKLHIPWGDNKNQVHGDKLMAFDTRAPMAAQGMVETRVFLQYLPAIRALWDDSGIQNAYDRRREFQLGESVKYFLDNLDKLGVPDYIPSQQDILLARRPTKGIHEYDFEIKNVPFKMVDVGGQRSERKRWFECFDSVTSILFLVSSSEFDQVLMEDRLTNRLTESLNIFETIVNNRVFSNVSIILFLNKTDLLEEKVQVVSIKDYFLEFEGDPHCLRDVQKFLVECFRGKRRDQQQRPLYHHFTTAINTENIRLVFRDVKDTILHDNLKQLMLQ
